Results published in publication PMC5356540.
These are yes or no findings as the source states them, for the method shown. In cells and extracts the contact can be indirect. Some results given as binding are weak or reduced against the parent protein; the word gives no strength.

The chains behind the UniProt entries cited, without tags or fusion partners.
UniProt P01108: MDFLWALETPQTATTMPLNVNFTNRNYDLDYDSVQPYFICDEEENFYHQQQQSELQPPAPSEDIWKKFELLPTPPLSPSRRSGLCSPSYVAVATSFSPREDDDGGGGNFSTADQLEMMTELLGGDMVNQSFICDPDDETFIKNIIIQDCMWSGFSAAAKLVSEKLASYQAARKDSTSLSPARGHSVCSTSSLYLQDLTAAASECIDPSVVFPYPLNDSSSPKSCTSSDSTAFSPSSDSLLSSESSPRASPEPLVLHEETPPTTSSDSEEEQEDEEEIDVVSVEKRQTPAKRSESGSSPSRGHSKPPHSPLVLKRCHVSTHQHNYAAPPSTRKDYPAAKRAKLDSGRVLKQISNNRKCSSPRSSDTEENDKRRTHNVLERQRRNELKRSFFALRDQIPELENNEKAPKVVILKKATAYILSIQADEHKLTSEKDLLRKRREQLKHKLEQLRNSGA

Target: c-Myc (mouse (endogenous in RAW264.7)) (UniProt P01108)
Test: co-IP; co-immunoprecipitation in murine RAW264.7 cells; antibodies and conditions not described

B1: Myb Like, SWIRM And MPN Domains 1 (MYSM1) (protein, UniProt Q69Z66 1-819)
chain: MEAEEADVDVEGDVAAAAQPGNDESTASVFQDHYLDSTWRRENGCLPWTLDSTISDENRAIIEKMLLEEEYYLSNKSLPGKFWVNQKEDNKKYTNSLQKSSKAMVDSPAKPASHSVKWTVEEKELFEQGLAKFGRRWTKIATLLKSRTVLQVKSYARQYFKNKVKWDVEKETPTQKSSSDLQVKNKDDRTKAWAAACLRGSADPCLNAVKIEKLSDDEDVDITDELDELTSQTSQNSGSHLTLDVPNSKMYTTNQGELCQEGPLAKSSGESLQNVKQGEGEACSSSEIASWAEKQKSTDKNSAELNEKYNKVVEEHTLHRGEVREEAKHSPSPEPCERQDSSGNEMLLPPCQIEEENHEGEELKPPEQEVEIDRNVIQEEEKQAIPEFFEGRQTKTPERYLKIRNYILDQWEICKPKYLNKTSVRPGLKNCGDVNCIGRIHTYLELIGAINFGCEQAVYNRPQPLDKVRAADRKDAEAAYQLAWRLQSMRTRRRRVRDPWGNWCDAKDLEGQTFEHLSVEEMARRKEEEKCKPIKFSKASKLPKSSLDPFQLIPCNFFSEEKQEPFQVKVAAEALLIMNLHAHVSMAEVIGLLGGRYSEADKVLEVCAAEPCNSLSTGLQCEMDPVSQTQASETLALRGYSVIGWYHSHPAFDPNPSLRDIDTQAKYQSYFSRGGAKFIGMIVSPYNRSNPLPYSQITCLVISEEVSPDGTYRLPYKFEVQQMLEEPQWELVFEKTRWIIEKYRLSNSSVPMDRIFRRDSDLTCLQKLLECLRKTLSKVANCFIAEEFLTQIENLFLSNYKSKEENGLAEEDSTKELFM
binding: binds
